{"source": "PubChem BioAssay AID1259308 (NCATS, 2017)", "assay": "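Knock-downs that increase output of a recombinant reporter protein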 (primary screen)", "cells": "human HEK293 embryonic kidney cells stably expressing firefly luciferase (HEK-CMV-Luc2-Hygro)", "reagents": "single siRNA against human genes, 0.8 pmol siRNA per well", "time to read-out": "72 h", "measurement": "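Reporter luminescence and viable-cell signal on separate replicate plates, given as percent of non-targeting control and median/MAD z-scores, plus per-cell luciferase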", "direction": "total luciferase, z-score: higher = more reporter protein produced", "hit rule": "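An siRNA counts as active if its total luciferase robust z-score exceeds 3; genes with two or more such siRNAs out of three were retested with fresh siRNAs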", "meaning of the calls": "active = raised luciferase; inactive = no rise", "note": "The whole screen tested about 59,000 reagents; shown is a part drawn at random. In the full data, about 1,510 (2.6%) are marked active. 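Calls use total luciferase alone and ignore viability, so some active siRNAs may act by altering cell number.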 The numbers tell different reagents against one gene apart. Not all columns of the deposit are shown."}
The opening 4 records, ahead of the listing:
{"gene symbol":"ARSF","reagent no.":1,"total luciferase, z-score":-0.756,"activity call":"inactive"}
{"gene symbol":"ARSF","reagent no.":2,"total luciferase, z-score":-0.576,"activity call":"inactive"}
{"gene symbol":"ARSF","reagent no.":3,"total luciferase, z-score":-0.777,"activity call":"inactive"}
{"gene symbol":"C1QTNF1","reagent no.":1,"total luciferase, z-score":-0.604,"activity call":"inactive"}

The listing, from the first entry:
{"gene symbol":"ARSF","reagent no.":1,"total luciferase, z-score":-0.756,"activity call":"inactive"}
{"gene symbol":"ARSF","reagent no.":2,"total luciferase, z-score":-0.576,"activity call":"inactive"}
{"gene symbol":"ARSF","reagent no.":3,"total luciferase, z-score":-0.777,"activity call":"inactive"}
{"gene symbol":"C1QTNF1","reagent no.":1,"total luciferase, z-score":-0.604,"activity call":"inactive"}
{"gene symbol":"C1QTNF1","reagent no.":2,"total luciferase, z-score":-0.954,"activity call":"inactive"}
{"gene symbol":"C1QTNF1","reagent no.":3,"total luciferase, z-score":0.436,"activity call":"inactive"}
{"gene symbol":"FOXRED1","reagent no.":1,"total luciferase, z-score":-0.536,"activity call":"inactive"}
{"gene symbol":"FOXRED1","reagent no.":2,"total luciferase, z-score":-1.54,"activity call":"inactive"}
{"gene symbol":"FOXRED1","reagent no.":3,"total luciferase, z-score":-0.557,"activity call":"inactive"}
{"gene symbol":"MVD","reagent no.":1,"total luciferase, z-score":-0.55,"activity call":"inactive"}
{"gene symbol":"MVD","reagent no.":2,"total luciferase, z-score":0.716,"activity call":"inactive"}
{"gene symbol":"MVD","reagent no.":3,"total luciferase, z-score":1.05,"activity call":"inactive"}
{"gene symbol":"TMEM126B","reagent no.":1,"total luciferase, z-score":0.777,"activity call":"inactive"}
{"gene symbol":"TMEM126B","reagent no.":2,"total luciferase, z-score":0.68,"activity call":"inactive"}
{"gene symbol":"TMEM126B","reagent no.":3,"total luciferase, z-score":1.44,"activity call":"inactive"}
{"gene symbol":"FABP1","reagent no.":1,"total luciferase, z-score":-1.51,"activity call":"inactive"}
{"gene symbol":"FABP1","reagent no.":2,"total luciferase, z-score":-0.913,"activity call":"inactive"}
{"gene symbol":"FABP1","reagent no.":3,"total luciferase, z-score":-1.3,"activity call":"inactive"}
{"gene symbol":"ACAP2","reagent no.":1,"total luciferase, z-score":0.994,"activity call":"inactive"}
{"gene symbol":"ACAP2","reagent no.":2,"total luciferase, z-score":0.376,"activity call":"inactive"}
{"gene symbol":"ACAP2","reagent no.":3,"total luciferase, z-score":-0.144,"activity call":"inactive"}
{"gene symbol":"PDGFRL","reagent no.":1,"total luciferase, z-score":-0.818,"activity call":"inactive"}
{"gene symbol":"PDGFRL","reagent no.":2,"total luciferase, z-score":2.34,"activity call":"inactive"}
{"gene symbol":"PDGFRL","reagent no.":3,"total luciferase, z-score":-1.28,"activity call":"inactive"}
{"gene symbol":"TBC1D24","reagent no.":1,"total luciferase, z-score":1.28,"activity call":"inactive"}
{"gene symbol":"TBC1D24","reagent no.":2,"total luciferase, z-score":3.87,"activity call":"active"}
{"gene symbol":"TBC1D24","reagent no.":3,"total luciferase, z-score":0.216,"activity call":"inactive"}
{"gene symbol":"SNCAIP","reagent no.":1,"total luciferase, z-score":1.53,"activity call":"inactive"}
{"gene symbol":"SNCAIP","reagent no.":2,"total luciferase, z-score":0.525,"activity call":"inactive"}
{"gene symbol":"SNCAIP","reagent no.":3,"total luciferase, z-score":4.74,"activity call":"active"}
{"gene symbol":"SLC4A7","reagent no.":1,"total luciferase, z-score":0.831,"activity call":"inactive"}
{"gene symbol":"SLC4A7","reagent no.":2,"total luciferase, z-score":-0.476,"activity call":"inactive"}
{"gene symbol":"SLC4A7","reagent no.":3,"total luciferase, z-score":0.853,"activity call":"inactive"}
